Results published in publication PMC9733950.
Results are given in words; binding and its absence hold for the method and conditions named. Binding seen in cells or lysates may run through a third protein. Here binding means that the protein was enriched with, or labelled near, the bait; the list need not be complete.

Sequences of proteins named here, by UniProt entry; tags and fusion partners are left off. A change or cut given only in a name is not applied to a line headed by its entry.
UniProt A0A1E3B957: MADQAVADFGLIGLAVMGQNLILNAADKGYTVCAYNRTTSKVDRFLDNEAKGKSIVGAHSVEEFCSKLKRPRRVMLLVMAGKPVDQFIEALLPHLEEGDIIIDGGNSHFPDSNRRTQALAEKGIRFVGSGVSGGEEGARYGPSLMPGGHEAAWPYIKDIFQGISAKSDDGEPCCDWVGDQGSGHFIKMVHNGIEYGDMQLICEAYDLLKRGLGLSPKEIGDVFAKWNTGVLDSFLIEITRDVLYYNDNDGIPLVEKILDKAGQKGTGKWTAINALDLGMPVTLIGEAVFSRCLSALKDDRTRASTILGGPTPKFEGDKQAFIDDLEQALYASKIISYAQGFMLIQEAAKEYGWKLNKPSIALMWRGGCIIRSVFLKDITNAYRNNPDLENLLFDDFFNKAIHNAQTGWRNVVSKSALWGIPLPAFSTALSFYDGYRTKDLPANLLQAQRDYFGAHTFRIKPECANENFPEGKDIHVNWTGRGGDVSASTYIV
UniProt A0A1E3BGW2: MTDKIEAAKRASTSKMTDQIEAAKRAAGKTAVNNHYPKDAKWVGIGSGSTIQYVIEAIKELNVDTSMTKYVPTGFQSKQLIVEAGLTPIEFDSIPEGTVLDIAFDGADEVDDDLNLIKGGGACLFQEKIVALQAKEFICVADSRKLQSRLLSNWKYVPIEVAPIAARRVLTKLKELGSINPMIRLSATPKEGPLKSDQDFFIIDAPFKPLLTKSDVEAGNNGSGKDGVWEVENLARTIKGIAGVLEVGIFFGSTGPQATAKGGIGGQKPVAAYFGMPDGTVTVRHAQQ
UniProt A0A1E3BK58: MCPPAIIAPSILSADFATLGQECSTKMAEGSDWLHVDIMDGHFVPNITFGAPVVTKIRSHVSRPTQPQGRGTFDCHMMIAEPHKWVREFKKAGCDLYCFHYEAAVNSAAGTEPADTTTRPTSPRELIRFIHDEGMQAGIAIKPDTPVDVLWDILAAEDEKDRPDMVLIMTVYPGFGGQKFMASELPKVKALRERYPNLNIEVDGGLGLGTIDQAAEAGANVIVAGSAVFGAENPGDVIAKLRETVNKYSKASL
UniProt A0A1E3BD42: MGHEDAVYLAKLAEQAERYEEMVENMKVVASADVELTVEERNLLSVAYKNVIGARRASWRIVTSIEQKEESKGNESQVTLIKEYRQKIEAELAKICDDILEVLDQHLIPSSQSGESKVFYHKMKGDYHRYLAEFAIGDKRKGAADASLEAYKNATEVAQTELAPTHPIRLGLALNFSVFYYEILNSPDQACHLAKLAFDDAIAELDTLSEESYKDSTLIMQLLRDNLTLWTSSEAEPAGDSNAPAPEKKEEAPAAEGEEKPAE
UniProt A0A1E3B0Z7: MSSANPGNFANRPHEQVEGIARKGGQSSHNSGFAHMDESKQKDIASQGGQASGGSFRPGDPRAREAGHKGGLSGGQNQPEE
UniProt A0A1E3BB62: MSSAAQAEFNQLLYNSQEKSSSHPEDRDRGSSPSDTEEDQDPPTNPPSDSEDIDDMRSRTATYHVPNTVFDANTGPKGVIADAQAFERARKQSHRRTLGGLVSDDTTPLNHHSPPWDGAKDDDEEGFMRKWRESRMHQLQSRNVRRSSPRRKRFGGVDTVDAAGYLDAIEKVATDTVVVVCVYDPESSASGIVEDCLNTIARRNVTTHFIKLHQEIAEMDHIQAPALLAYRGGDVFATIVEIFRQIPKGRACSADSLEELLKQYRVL
UniProt A0A1E3BER4: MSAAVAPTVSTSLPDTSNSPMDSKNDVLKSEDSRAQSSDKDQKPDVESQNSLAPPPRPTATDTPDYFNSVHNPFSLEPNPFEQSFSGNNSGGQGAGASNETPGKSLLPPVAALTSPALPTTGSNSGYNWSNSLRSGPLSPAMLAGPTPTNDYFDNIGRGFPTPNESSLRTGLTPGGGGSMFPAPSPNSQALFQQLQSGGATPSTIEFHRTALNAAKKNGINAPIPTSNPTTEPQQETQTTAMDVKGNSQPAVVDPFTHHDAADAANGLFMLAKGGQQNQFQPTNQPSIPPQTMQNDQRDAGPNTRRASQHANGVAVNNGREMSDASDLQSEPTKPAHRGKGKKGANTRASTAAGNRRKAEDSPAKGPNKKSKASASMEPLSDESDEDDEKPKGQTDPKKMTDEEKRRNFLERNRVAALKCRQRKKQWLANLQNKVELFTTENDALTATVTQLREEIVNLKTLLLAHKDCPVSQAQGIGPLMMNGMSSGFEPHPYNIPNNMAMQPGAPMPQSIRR
UniProt A0A1E3BC73: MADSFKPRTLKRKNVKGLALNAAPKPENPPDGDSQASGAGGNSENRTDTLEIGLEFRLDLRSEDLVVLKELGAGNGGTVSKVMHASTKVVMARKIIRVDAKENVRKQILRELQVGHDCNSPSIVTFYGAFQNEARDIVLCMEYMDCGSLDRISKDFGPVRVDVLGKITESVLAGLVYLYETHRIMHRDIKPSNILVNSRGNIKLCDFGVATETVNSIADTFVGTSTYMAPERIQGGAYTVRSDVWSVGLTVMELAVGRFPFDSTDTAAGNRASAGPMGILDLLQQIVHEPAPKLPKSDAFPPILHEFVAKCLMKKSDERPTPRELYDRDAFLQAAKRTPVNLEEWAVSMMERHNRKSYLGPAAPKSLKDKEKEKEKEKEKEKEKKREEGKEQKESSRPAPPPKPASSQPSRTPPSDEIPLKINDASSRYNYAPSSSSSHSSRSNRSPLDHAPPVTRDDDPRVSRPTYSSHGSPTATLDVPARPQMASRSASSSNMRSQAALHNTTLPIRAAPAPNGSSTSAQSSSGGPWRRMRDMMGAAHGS
UniProt A0A1E3BMS4: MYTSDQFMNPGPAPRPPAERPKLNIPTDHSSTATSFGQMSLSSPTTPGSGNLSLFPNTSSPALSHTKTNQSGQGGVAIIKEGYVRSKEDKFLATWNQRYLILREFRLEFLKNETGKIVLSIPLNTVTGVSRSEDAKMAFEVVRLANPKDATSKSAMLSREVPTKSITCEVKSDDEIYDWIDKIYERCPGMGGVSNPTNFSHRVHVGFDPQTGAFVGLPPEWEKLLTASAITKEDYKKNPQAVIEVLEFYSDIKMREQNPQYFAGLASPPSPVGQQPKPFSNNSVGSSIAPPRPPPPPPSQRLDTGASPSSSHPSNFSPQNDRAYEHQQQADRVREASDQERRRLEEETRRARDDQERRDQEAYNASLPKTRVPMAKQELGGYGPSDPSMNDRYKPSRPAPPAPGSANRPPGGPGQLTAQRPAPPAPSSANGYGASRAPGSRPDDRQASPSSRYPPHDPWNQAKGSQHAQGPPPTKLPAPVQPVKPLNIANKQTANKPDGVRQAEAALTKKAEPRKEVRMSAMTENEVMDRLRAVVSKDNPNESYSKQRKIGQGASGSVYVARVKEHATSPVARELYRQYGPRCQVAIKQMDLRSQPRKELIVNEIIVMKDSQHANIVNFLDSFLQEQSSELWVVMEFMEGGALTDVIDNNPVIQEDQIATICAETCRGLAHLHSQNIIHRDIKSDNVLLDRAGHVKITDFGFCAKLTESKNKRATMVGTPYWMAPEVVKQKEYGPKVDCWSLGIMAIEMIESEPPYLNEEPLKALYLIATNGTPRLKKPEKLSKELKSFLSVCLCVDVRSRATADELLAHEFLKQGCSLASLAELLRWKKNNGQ
UniProt A0A1E3B0F0: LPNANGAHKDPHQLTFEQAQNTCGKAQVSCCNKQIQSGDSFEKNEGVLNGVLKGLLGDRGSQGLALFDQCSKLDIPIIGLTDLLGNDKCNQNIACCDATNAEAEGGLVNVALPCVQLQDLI
UniProt A0A1E3B873: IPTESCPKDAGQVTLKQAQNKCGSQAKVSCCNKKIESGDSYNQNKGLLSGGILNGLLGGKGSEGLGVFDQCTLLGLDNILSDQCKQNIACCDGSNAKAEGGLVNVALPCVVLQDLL
UniProt A0A1E3B8J2: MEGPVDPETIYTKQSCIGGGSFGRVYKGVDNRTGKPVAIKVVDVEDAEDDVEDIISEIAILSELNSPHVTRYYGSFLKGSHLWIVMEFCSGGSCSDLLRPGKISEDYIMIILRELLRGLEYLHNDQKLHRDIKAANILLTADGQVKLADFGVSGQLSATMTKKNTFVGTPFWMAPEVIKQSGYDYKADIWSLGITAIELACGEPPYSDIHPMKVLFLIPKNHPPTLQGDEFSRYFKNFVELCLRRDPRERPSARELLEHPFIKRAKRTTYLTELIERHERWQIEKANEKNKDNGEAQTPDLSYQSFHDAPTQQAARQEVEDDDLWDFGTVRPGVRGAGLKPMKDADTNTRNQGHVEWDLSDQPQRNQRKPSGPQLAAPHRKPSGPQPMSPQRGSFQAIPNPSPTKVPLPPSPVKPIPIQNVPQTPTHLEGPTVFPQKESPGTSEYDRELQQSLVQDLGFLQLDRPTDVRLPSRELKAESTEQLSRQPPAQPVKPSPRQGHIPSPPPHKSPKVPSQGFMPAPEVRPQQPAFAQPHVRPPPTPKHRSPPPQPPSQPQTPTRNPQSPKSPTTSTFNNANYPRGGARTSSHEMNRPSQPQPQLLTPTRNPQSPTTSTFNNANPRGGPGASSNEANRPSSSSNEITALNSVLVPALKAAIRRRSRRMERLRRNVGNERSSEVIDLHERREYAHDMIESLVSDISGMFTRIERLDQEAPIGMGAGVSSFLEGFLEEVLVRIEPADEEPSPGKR

Each substance was assayed against GST-AcHog1 fusion protein (Aspergillus cristatus) (assay: affinity purification with mass spectrometry; GST-AcHog1 pull-down from total proteins of A. cristatus cultivated under normal osmotic stress (WT-D) and hypertonic stress (WT-H, MYA with 3 M NaCl, 7 days); proteins detected by LC-MS/MS; only the target purified).

**Q.** How did the binding turn out when “6-phosphogluconate dehydrogenase (A0A1E3B957) (from UniProt A0A1E3B957) (enzyme)” was run?
**A.** The binding was “binds”.

**Q.** How did the binding turn out when A0A1E3BGW2 (from UniProt A0A1E3BGW2) was run?
**A.** The binding was “binds”.

**Q.** How did the binding turn out when A0A1E3BK58 (from UniProt A0A1E3BK58) was run?
**A.** Its binding is “binds”.

**Q.** “AcBmh1 (endogenous) (from UniProt A0A1E3BD42)” was tested. Which binding did it give?
**A.** The binding was “binds”.

**Q.** How did the binding turn out when “AcCsp (endogenous) (from UniProt A0A1E3B0Z7)” was run?
**A.** Its binding is “binds”.

**Q.** With “AcPhnA (endogenous) (from UniProt A0A1E3BB62)” as the substance, how does the binding read?
**A.** Its binding is “binds”.

**Q.** With “AcSko1 (endogenous) (from UniProt A0A1E3BER4)” as the substance, how does the binding read?
**A.** The binding was “binds”.

**Q.** “AcSte7 (endogenous) (from UniProt A0A1E3BC73)” was tested. Which binding did it give?
**A.** The binding was “binds”.

**Q.** Which binding does the source give for “Cla4 (endogenous) (from UniProt A0A1E3BMS4)” here?
**A.** The binding was “binds”.

**Q.** Which binding does the source give for “RodA (endogenous) (from UniProt A0A1E3B0F0)” here?
**A.** The binding was “binds”.

**Q.** Which binding does the source give for “RodB (endogenous) (from UniProt A0A1E3B873)” here?
**A.** The binding was “binds”.

**Q.** Which binding does the source give for “Ste20 (endogenous) (from UniProt A0A1E3B8J2)” here?
**A.** Its binding is “binds”.
